Reference: patent publication US20220220218A1 (JIANGSU HENGRUI MEDICINE, published 2022)
These are yes or no findings as the source states them, for the method shown. Some entries that bind do so weakly or less than the wild type.

T1: human CD73 (huCD73) protein, antigen of the Biacore assay (human) (UniProt P21589)
T1 sequence (looked up): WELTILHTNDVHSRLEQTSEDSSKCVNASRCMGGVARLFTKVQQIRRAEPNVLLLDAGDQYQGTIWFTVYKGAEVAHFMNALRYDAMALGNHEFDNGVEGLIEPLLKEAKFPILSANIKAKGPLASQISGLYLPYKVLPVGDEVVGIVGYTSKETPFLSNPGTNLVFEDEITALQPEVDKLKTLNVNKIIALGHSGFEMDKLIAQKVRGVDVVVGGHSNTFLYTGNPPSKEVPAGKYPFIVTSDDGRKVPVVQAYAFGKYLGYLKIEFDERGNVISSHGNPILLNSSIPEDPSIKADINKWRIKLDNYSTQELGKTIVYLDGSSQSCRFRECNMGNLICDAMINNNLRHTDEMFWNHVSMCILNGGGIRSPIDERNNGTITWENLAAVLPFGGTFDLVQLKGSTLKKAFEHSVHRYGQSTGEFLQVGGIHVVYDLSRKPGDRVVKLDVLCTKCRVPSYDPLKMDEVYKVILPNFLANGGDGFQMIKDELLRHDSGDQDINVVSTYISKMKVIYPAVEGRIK


What was measured:
[1] = target: cynomolgus monkey CD73/NT5E protein (His tag), Sino Biological Cat. No. 90192-C08H (cynomolgus monkey); assay: SPR Biacore T200
[2] = target: T1, human CD73 (huCD73) protein, antigen of the Biacore assay (human); assay: SPR Biacore T200
[3] = target: cynomolgus monkey CD73/NT5E protein (His tag), Sino Biological Cat. No. 90192-C08H (cynomolgus monkey); assay: ELISA; cynomolgus monkey CD73 coated on plate

Row | binding [1] | binding [2] | binding [3] | Binder
1 | binds | binds | binds | Hab108.64 (antibody, human IgG1, kappa, V domains shown, also called humanized antibody of mab108) VH: EVTLKQSGPGLVKPTETLTLTCTVSGFSLSSYGIQWVRQPPGKGLEWLGVIWSGGSADYNAAFISRLTISKDTSKSQVVLTMTNMDPVDTATYYCAGQYGSVWGQGTLVTVSS VL: DIQMTQSPSSLSASVGDRVTITCRASQDIGDRLNWLQQKPGGAIKRLIYATSSLDSGVPKRFSGSGSGTEYTLTISSLQPEDFATYYCLQYAGSWTFGGGTKVEIKR
2 | binds | binds | binds | Hab110.21 (antibody, human IgG1, kappa, V domains shown, also called humanized antibody of mab110) VH: EVQLVQSGAEVKKPGASVKVSCKASGYTFTSYTMHWVRQAPGQRLEWMGYINPNSFYIEYNQKFKDRVTITRDTSASTAYMELSSLRSEDTAVYYCARGDYDLFYDMDNWGQGTTVTVSS VL: DIQMTQSPSSLSASVGDRVTITCRASQDIGNSLNWLQQKPGKAIKRLIYATFRLDSGVPSRFSGSRSGTEYTLTISSLQPEDFATYYCQQYASFPWTFGGGTKVEIKR
3 | binds | binds | binds | Hab127.31d (antibody, human IgG1, kappa, V domains shown, also called humanized antibody of mab127) VH: EVQLVQSGAEVKKPGASVKVSCKASGYTFTAYFMNWVRQAPGQGLEWMGRIYHNKGDTFYSQKFKGRVTMTVDKSTSTVYMELSSLRSEDTAVYYCATSYVGDWGQGTTVTVSS VL: DIQMTQSPSSLSASVGDRVTITCRASQDIGDSLNWLQQKPGGALKRLIYATSSLDSGVPSRFSGSGSGTEYTLTISSLQPEDFATYYCLQYASFPWTFGGGTKVEIKR
